Earlier results, collected in patent US10976308B2, “Plant-derived nanofibrillar cellulose hydrogel for cell culture and chemical testing” (UPM-KYMMENE CORPORATION, priority 2014, dated 2021).

Assays:
[1] = by Khetani et al. 2013
3D liver models = details: by Khetani et al. 2013

In the case of `O=C(O)c1cn(C2CC2)c2cc(N3CCNCC3)c(F)cc2c1=O` [ciprofloxacin], the Cmax [1] is given as 11.5 µM and the “Toxicity in 3D liver models” value (3D liver models) is given as “toxicity is not detected in all 3D models tested”.
